PubChem BioAssay AID1259254, NCATS | 2017
Test: 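Finding genes that stop cells copying their DNA twice in one cycle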 (primary screen). Cells: human HCT116 colorectal cancer cells. Reagents: single siRNA against human genes. Timing: 3 days. Detection: 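Nuclei stained with Hoechst and imaged; cell-cycle phase assigned by DNA content; G2 share scaled per plate, non-targeting siRNA 0%, GMNN siRNA 100%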. Direction: G2 robust z-score: higher = more G2 cells, more excess DNA replication. Active means: 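Active siRNAs have a G2 robust z of 5 or more median absolute deviations over the median, which in these data means about 38% or higher of GMNN control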.
Here is an unselected part of about 59,000 reagents tested. In the full data, about 1,550 (2.6%) got an active call. 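G2 share is only a proxy for re-replication; each gene was hit by three separate siRNAs, and active genes were retested.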 Unmarked entries are inactive. The numbers tell different reagents against one gene apart. Not all columns of the deposit are shown. Reagent sequences are not shown. Not given: the amount of reagent.

For AMZ2P1 (GeneID 201283) #1 the deposit lists G2 robust z-score -0.242. AMZ2P1 (GeneID 201283) #2 scored G2 robust z-score -0.673. Against AMZ2P1 (GeneID 201283) #3 the deposit lists G2 robust z-score 0.232. CLDN9 (GeneID 9080) #1 gave G2 robust z-score -0.326. Silencing of CLDN9 (GeneID 9080) #2 came out at: G2 robust z-score 1.65. Silencing of CLDN9 (GeneID 9080) #3 came out at: G2 robust z-score -0.981.

For LRRC37A4P (GeneID 55073) #1, the values are G2 robust z-score 0.823. For LRRC37A4P (GeneID 55073) #2 the deposit lists G2 robust z-score -0.636. Silencing of LRRC37A4P (GeneID 55073) #3 resulted in: G2 robust z-score 1. KRTAP4-2 (GeneID 85291) #1 scored G2 robust z-score -0.538. After knock-down of KRTAP4-2 (GeneID 85291) #2 the results were G2 robust z-score 0.951. After knock-down of KRTAP4-2 (GeneID 85291) #3 the results were G2 robust z-score 1.05.

2 of these entries in another layout.
| gene knocked down | reagent no. | G2 robust z-score |
| --- | --- | --- |
| KRTAP4-2 (GeneID 85291) | 2 | 0.951 |
| KRTAP4-2 (GeneID 85291) | 3 | 1.05 |

Continued:
TMEM167A (GeneID 153339) #1 scored G2 robust z-score -0.297. Against TMEM167A (GeneID 153339) #2, the entry reads G2 robust z-score 6.01 (active). TMEM167A (GeneID 153339) #3 scored G2 robust z-score -0.456. Depletion of SANBR (GeneID 84542) #1 came out at: G2 robust z-score 2.22. SANBR (GeneID 84542) #2 showed G2 robust z-score 0.0771. After knock-down of SANBR (GeneID 84542) #3 the results were G2 robust z-score 0.0903.

SMC6 (GeneID 79677) #1 scored G2 robust z-score 0.404. For SMC6 (GeneID 79677) #2, the entry reads G2 robust z-score 1.52. SMC6 (GeneID 79677) #3 showed G2 robust z-score -0.604. With knock-down of LINC02877 (GeneID 152118) #1, the record shows G2 robust z-score 1.04. Against LINC02877 (GeneID 152118) #2, the values are G2 robust z-score 9.27 (active). Knock-down of LINC02877 (GeneID 152118) #3 came out at: G2 robust z-score -0.382.
